# Measured data: PubChem BioAssay AID1259425 (University of Nebraska Medical Center, 2018)
# Aim: 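Seek colon cancer weak points whose silencing resembles KSR1 loss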 (primary screen)
# System: HCT116 human colon cancer cells
# Reagents: siRNA pool against human genes, 50 nM siRNA
# Read-out: 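After 50 nM siRNA pool, branched-DNA assay measures six marker transcripts per well, minus blank, normalised to the geometric mean of two housekeeping transcripts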
# Reading the numbers: BNIP3L mRNA: higher = more BNIP3L transcript after knockdown; NDRG1 mRNA: higher = more NDRG1 transcript after knockdown; BNIP3 mRNA: higher = more BNIP3 transcript after knockdown; ALDOC mRNA: higher = more ALDOC transcript after knockdown; ACSL5 mRNA: higher = more ACSL5 transcript after knockdown
# Shown is a random part of about 14,000 deposited reagents. Not given: the time to read-out.
Gene,"BNIP3L mRNA, set 1","NDRG1 mRNA, set 1","BNIP3 mRNA, set 1","ALDOC mRNA, set 1","ACSL5 mRNA, set 1"
INPP5K,0.207,0.145,0.251,0.0255,0.126
GNE,0.15,0.186,0.32,0.024,0.17
GRIP1,0.0938,0.129,0.259,0.0282,0.182
MAGED1,0.169,0.376,0.419,0.0407,0.268
ST3GAL2,0.0759,0.256,0.347,0.0157,0.136
PDE6B,0.117,0.253,0.168,0.0223,0.158
MEX3C,0.13,0.327,0.51,0.0314,0.357
MYL6,0.286,0.362,0.735,0.0508,0.168
ALOX12B,0.0872,0.23,0.29,0.0353,0.17
ZNF334,0.0858,0.0615,0.371,0.0319,0.148
MOSPD1,0.106,0.469,0.274,0.0388,0.238
ABI3BP,0.188,0.302,0.538,0.0266,0.219
RNF150,0.1,0.126,0.268,0.0442,0.313
DNAJB9,0.0981,0.152,0.219,0.0237,0.12
ALDOC,0.0527,0.234,0.364,0.00228,0.138
HIPK4,0.0948,0.19,0.294,0.0155,0.173
UCP3,0.233,0.483,0.65,0.0966,0.0876
SLC44A1,0.138,0.197,0.332,0.0112,0.169
TMEM25,0.122,0.149,0.286,0.0311,0.204
CXXC5,0.103,0.317,0.288,0.0304,0.265
ACP6,0.106,0.157,0.46,0.0174,0.258
PCDH1,0.236,0.195,0.522,0.0115,0.264
GGT1,0.165,0.156,0.286,0.0752,0.207
GPR183,0.182,0.104,0.314,0.028,0.0915
RAB14,0.0827,0.166,0.285,0.0379,0.172
NTPCR,0.175,0.255,0.26,0.113,0.547
KSR2,0.0588,0.196,0.333,0.0189,0.152

Continued (4 carried over from the part before).
Gene,"BNIP3L mRNA, set 1","NDRG1 mRNA, set 1","BNIP3 mRNA, set 1","ALDOC mRNA, set 1","ACSL5 mRNA, set 1"
GPR183,0.182,0.104,0.314,0.028,0.0915
RAB14,0.0827,0.166,0.285,0.0379,0.172
NTPCR,0.175,0.255,0.26,0.113,0.547
KSR2,0.0588,0.196,0.333,0.0189,0.152
RMDN1,0.0691,0.0691,0.321,0.0199,0.192
TMX3,0.0353,0.116,0.29,0.00928,0.26
KIZ,0.16,0.244,0.328,0.0526,0.169
CHRM5,0.0581,0.163,0.272,0.0335,0.124
DEFA6,0.0975,0.24,0.261,0.0352,0.113
RPH3A,0.154,0.516,0.178,0.0366,0.0866
PTPRH,0.139,0.335,0.376,0.0566,0.194
THUMPD3,0.146,0.149,0.511,0.0641,0.218
ACAD10,0.249,0.327,0.474,0.0308,0.129
TRAF3IP3,0.16,0.618,0.313,0.0738,0.236
FOLH1,0.152,0.192,0.328,0.0112,0.279
MAP2,0.238,0.976,0.442,0.0201,0.105
LASP1,0.062,0.559,0.334,0.0244,0.0723
TMEM87B,0.14,0.171,0.217,0.0512,0.102
AP3M1,0.0836,0.0969,0.304,0.0225,0.117
CAB39,0.0701,0.558,0.352,0.0227,0.236
SLC30A6,0.1,0.103,0.333,0.0177,0.0932
GEMIN7,0.153,0.256,0.274,0.0417,0.221
FAAP100,0.199,0.172,0.331,0.0284,0.0981
MPST,0.154,0.175,0.408,0.0308,0.12
BRCA1,0.0752,0.068,0.354,0.0225,0.12
BAG6,0.164,0.209,0.232,0.0302,0.232
BMPR1A,0.0444,0.205,0.211,0.0161,0.134
